US20190328766A1, “COMPOSITIONS AND METHODS FOR SUPPRESSING MSUT2” (United States Government As Represented By The Department …, published 2019)
These are yes or no findings as the source states them, for the method shown. In cells and extracts the contact can be indirect. Some entries that bind do so weakly or less than the wild type. Sequences can lack the tags named with a protein.

Columns and labels:
[1] = molecular target: T1, 35S radiolabeled PABPN1 (human) (UniProt Q86U42); assay: GST pulldown, recombinant human proteins
T1 sequence (35S radiolabel (in vitro translated), looked up): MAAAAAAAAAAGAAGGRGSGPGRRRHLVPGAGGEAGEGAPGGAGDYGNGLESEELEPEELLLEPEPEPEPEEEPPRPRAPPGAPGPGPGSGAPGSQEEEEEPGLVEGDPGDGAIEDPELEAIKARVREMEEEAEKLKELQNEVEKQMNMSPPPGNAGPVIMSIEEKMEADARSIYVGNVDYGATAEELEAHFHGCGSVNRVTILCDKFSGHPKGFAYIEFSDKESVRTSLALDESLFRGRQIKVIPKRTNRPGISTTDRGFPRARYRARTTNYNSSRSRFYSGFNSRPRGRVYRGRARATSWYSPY

[2] = molecular target: T1, 35S radiolabeled PABPN1 (human); assay: in vitro GST pulldown (restated)
[3] = molecular target: T1, 35S radiolabeled PABPN1 (human); assay: GST pulldown, 35S-labeled PABPN1, RNAse pretreated

Measured: binding

B1: recombinant GST-MSUT2 Zinc Finger (ZF) fusion protein (protein, human, UniProt Q6PJT7 595-736, looked up, not shown: a dimerising Fc or GST)
chain: EKLLERCKYWPACKNGDECAYHHPISPCKAFPNCKFAEKCLFVHPNCKYDAKCTKPDCPFTHVSRRIPVLSPKPAVAPPAPPSSSQLCRYFPACKKMECPFYHPKHCRFNTQCTRPDCTFYHPTINVPPRHALKWIRPQTSE
binds: all assays above
